Record: PubChem BioAssay AID1259405 (NCATS, 2018)
The deposit covers about 50,000 reagents; this is a part drawn at random. About 4,000 of them (8%) count as active. 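Mouse siRNA library applied to hamster cells; one well for each siRNA.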 A number with no mark means an inactive call. The numbers tell different reagents against one gene apart.

- Assay: 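Mouse-designed siRNAs used to find CHO productivity engineering targets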 (primary screen)
- Cells: Chinese hamster CHO-K1 ovary cells with stable secreted eGFP expression
- Reagent: single siRNA against mouse genes, 0.8 pmol siRNA per well (2 µl of 400 nM stock)
- Timing: 3 days
- Read-out: 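Percent of the per-plate non-targeting control median for intracellular GFP per well by laser scanning cytometry and for cell viability by ATP luminescence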
- Reading the numbers: GFP, % of control: higher = more GFP per well, higher productivity; viability (ATP), % of control: higher = more viable cells (more ATP)
- Active means: 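a knock-down is called active if GFP reaches 120% or more of non-targeting control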

For Gabre #1, the entry reads GFP, % of control 63.7; viability (ATP), % of control 75.2.
With knock-down of Gabre #2, the screen gave GFP, % of control 67.1; viability (ATP), % of control 57.9.
Against Gabre #3 the deposit lists GFP, % of control 78.2; viability (ATP), % of control 68.2.
After knock-down of Prim1 #1 the results were GFP, % of control 68.8; viability (ATP), % of control 106.
Silencing of Prim1 #2 came out at: GFP, % of control 57.6; viability (ATP), % of control 73.2.
Silencing of Serpinb3b #1 gave: GFP, % of control 96.4; viability (ATP), % of control 66.1.
Serpinb3b #2 showed GFP, % of control 102; viability (ATP), % of control 77.7.
With knock-down of Serpinb3b #3 the results were GFP, % of control 159 (active); viability (ATP), % of control 101.
Silencing of Dynlt2a1 #1 gave: GFP, % of control 107; viability (ATP), % of control 96.7.
Against Dynlt2a1 #2, the values are GFP, % of control 105; viability (ATP), % of control 85.8.
For Dynlt2a1 #3, the values are GFP, % of control 144 (active); viability (ATP), % of control 86.1.
With knock-down of Scml2 #1, the record shows GFP, % of control 70.5; viability (ATP), % of control 68.2.
Silencing of Scml2 #2 resulted in: GFP, % of control 81.4; viability (ATP), % of control 83.1.
Scml2 #3 scored GFP, % of control 65.9; viability (ATP), % of control 78.
For Gp1ba #1, the values are GFP, % of control 117; viability (ATP), % of control 98.9.
With knock-down of Gp1ba #2 the results were GFP, % of control 128 (active); viability (ATP), % of control 73.6.
With knock-down of Gp1ba #3, the record shows GFP, % of control 100; viability (ATP), % of control 70.2.
With knock-down of Platr28 #1, the screen gave GFP, % of control 85.8; viability (ATP), % of control 54.1.
With knock-down of Platr28 #2 the results were GFP, % of control 79.2; viability (ATP), % of control 66.9.
Knock-down of Platr28 #3 gave: GFP, % of control 69.5; viability (ATP), % of control 91.3.
Depletion of Foxa1 #1 came out at: GFP, % of control 94.5; viability (ATP), % of control 131.
Against Foxa1 #2 the deposit lists GFP, % of control 124 (active); viability (ATP), % of control 89.4.
With knock-down of Ifi47 #1, the screen gave GFP, % of control 41; viability (ATP), % of control 69.7.
After knock-down of Ifi47 #2, the record shows GFP, % of control 65.7; viability (ATP), % of control 84.5.
After knock-down of Ifi47 #3 the results were GFP, % of control 57.7; viability (ATP), % of control 55.3.
After knock-down of Dnmbp #1 the results were GFP, % of control 66.4; viability (ATP), % of control 95.5.
For Dnmbp #2, the entry reads GFP, % of control 117; viability (ATP), % of control 99.2.
Dnmbp #3 gave GFP, % of control 65.6; viability (ATP), % of control 77.5.
Silencing of Ndufaf3 #1 gave: GFP, % of control 57.8; viability (ATP), % of control 50.4.
Knock-down of Ndufaf3 #2 resulted in: GFP, % of control 92.8; viability (ATP), % of control 46.5.
Knock-down of Ndufaf3 #3 resulted in: GFP, % of control 70.1; viability (ATP), % of control 85.
For Rflna #1 the deposit lists GFP, % of control 59.4; viability (ATP), % of control 66.1.
Depletion of Rflna #2 resulted in: GFP, % of control 81.2; viability (ATP), % of control 80.8.
Depletion of Rflna #3 came out at: GFP, % of control 76.8; viability (ATP), % of control 66.9.
Against 9430097D07Rik #1, the entry reads GFP, % of control 73.9; viability (ATP), % of control 73.2.
Knock-down of 9430097D07Rik #2 came out at: GFP, % of control 92.6; viability (ATP), % of control 61.3.
With knock-down of 9430097D07Rik #3 the results were GFP, % of control 50.6; viability (ATP), % of control 66.
Knock-down of Or52h1 #1 came out at: GFP, % of control 147 (active); viability (ATP), % of control 99.3.
Knock-down of Or52h1 #2 gave: GFP, % of control 63.5; viability (ATP), % of control 85.5.
After knock-down of Or52h1 #3, the screen gave GFP, % of control 28.8; viability (ATP), % of control 64.2.

Copied from the entries so far (4 entries):
Platr28 #2 → GFP, % of control: 79.2; viability (ATP), % of control: 66.9
Platr28 #3 → GFP, % of control: 69.5; viability (ATP), % of control: 91.3
Foxa1 #1 → GFP, % of control: 94.5; viability (ATP), % of control: 131
Foxa1 #2 → GFP, % of control: 124 (active); viability (ATP), % of control: 89.4
